Reference: article PMC4199516
No constants are given. Whether binding was seen depends on the method and setting. For some of these results: Binding can be weak; no strength is given.

Experiments:
Assay in all cases: two-hybrid; yeast two-hybrid; proteins fused to either the DNA binding domain (DB) or the activation domain (AD) of GAL4; interactions scored by growth on SC-Leu-Trp-Ade plates; similar results with different combinations of yeast strains and plasmids
MRT-2/Rad1 (C. elegans) = molecular target: T1, MRT-2/Rad1 (C. elegans) (UniProt G5EC44)
T1 sequence: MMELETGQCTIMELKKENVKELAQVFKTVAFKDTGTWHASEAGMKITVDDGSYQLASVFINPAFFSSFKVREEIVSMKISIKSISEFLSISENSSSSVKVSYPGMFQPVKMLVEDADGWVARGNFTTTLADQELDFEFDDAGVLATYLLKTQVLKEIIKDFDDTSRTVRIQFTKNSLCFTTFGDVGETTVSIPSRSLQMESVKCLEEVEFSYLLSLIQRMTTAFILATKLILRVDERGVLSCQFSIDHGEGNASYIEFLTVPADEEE

[1] = molecular target: T2, CLK-2 (S. cerevisiae Tel2p ortholog) (C. elegans) (UniProt Q95YE9)
T2 sequence: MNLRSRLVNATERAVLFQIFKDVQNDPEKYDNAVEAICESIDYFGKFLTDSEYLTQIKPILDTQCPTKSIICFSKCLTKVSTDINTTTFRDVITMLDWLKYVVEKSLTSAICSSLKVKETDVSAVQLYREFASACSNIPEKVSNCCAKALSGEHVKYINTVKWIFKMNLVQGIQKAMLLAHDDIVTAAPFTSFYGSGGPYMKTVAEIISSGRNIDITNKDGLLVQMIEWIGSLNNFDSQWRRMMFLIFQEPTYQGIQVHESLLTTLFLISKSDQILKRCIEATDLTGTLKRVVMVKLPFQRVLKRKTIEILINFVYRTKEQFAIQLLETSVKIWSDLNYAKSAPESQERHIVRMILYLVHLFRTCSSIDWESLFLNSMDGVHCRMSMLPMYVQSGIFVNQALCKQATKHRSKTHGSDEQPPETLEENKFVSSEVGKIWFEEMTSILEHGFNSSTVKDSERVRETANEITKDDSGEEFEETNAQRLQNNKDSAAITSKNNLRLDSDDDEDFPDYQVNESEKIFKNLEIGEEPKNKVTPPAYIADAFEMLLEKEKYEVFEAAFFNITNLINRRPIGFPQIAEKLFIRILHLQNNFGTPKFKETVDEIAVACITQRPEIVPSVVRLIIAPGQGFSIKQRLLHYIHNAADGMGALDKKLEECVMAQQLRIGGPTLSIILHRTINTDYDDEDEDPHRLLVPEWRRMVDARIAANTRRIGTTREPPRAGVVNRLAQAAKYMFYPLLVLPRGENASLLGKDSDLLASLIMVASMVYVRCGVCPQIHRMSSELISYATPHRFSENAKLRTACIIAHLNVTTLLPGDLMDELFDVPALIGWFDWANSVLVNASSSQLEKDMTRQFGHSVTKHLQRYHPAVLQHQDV

[2] = molecular target: T3, HPR-9 (Rad9 homolog) (C. elegans) (UniProt Q95Q27)
T3 sequence: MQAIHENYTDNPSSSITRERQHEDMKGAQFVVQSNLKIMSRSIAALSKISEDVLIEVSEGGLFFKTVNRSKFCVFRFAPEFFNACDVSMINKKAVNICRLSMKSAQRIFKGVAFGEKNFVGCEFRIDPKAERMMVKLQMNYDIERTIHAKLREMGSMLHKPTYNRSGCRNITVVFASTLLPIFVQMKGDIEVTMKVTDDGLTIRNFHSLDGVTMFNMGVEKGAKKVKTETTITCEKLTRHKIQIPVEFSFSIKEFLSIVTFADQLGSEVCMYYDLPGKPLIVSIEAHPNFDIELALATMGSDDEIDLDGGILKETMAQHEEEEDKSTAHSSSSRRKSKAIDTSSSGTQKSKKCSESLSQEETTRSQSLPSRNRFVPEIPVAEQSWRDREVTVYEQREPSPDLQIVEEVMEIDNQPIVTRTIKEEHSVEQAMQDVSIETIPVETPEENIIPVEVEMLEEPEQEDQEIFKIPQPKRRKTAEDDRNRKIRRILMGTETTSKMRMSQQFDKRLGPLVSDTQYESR

| Substance | binding (MRT-2/Rad1 (C. elegans)) | binding [1] | binding [2] |
| --- | --- | --- | --- |
| ZTF-8 with a mutation in the APSES DNA binding domain (SSLCPNA to AAAAAAA) (C. elegans) | no binding |  |  |
| ZTF-8, full length (from UniProt Q9GYG1) | binds | no binding | no binding |
| ZTF-8N (N-terminal truncation, 1-330) (C. elegans) (domain or fragment) | no binding |  |  |
| ZTF-8M (middle truncation, 270-598) (C. elegans) (domain or fragment) | no binding |  |  |
| ZTF-8C (C-terminal truncation, 400-687) (C. elegans) (domain or fragment) | no binding |  |  |
